Test results taken from patent publication US7842294B2, “Proteins belonging to the Bcl-2 family and fragments thereof, and their use in cancer patients” (Survac APS, priority 2003, dated 2010).
Some entries share one result that the patent states for a list of compounds. Ends that are not written are not given here.

Tested on: antigen-specific CTL in PBL
Assay: Granzyme B (GrB) ELISPOT
Format: cell-based, human
Settings: bcl-2 reactive breast cancer patients no. 19, 20 and 22
Experimental: The Granzyme B (GrB) ELISPOT assay was used for measuring antigen-specific CTL cytotoxicity as described. Briefly, nitrocellulose bottomed 96-well plates (MultiScreen MAIP N45, Millipore) were coated with GrB Capture Antibody (BD Biosciences, Brondby, Denmark). The wells were washed and blocked by X-vivo medium with 5% human serum. The cells were added at different cell concentrations. T2 cells and peptides were then added to each well and the plates were incubated 4 hours, medium was discarded and the wells were washed prior to addition of GrB Detection Antibody (BD Biosciences). The plates were incubated for 2 hours, washed and Avidin horseradish peroxidase (BD Biosciences) was added to each well. Plates were incubated at RT for 1 hour AEC Substrate Reagent (BD Biosciences) was added to each well and incubated at RT for 5-10 min. The reaction was terminated by washing with tap-water upon the emergency of red spots. The spots were counted and the peptide specific CTL frequency was calculated like for the INF-γ ELISPOT. All assays were performed in duplicate or triplicates for each peptide antigen.

Sequence | frequency of peptide specific CTL (GrB ELISPOT)
PLFDFSWLSL [bcl208] | 50-140 peptide specific CTL per 10^5 PBL
WLSLKTLLSL [bcl214] | 50-140 peptide specific CTL per 10^5 PBL
